Laboratory results from the supplement of paper PMC8104966.
The other results are listed elsewhere or left out. This data set is noisy: repeats of one test often differ as much as different tests do.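 Fusion between ACE2-bearing and full-length-spike-bearing U2OS cells was measured by imaging as the percentage of nuclei with both cell types' fluorescent markers. An inhibitory hit is a non-toxic compound whose fusion z-score is below -3, more than three standard deviations beneath the plate's DMSO wells.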

Each compound was assayed on U2OS ACE2 x SARS-CoV-2 spike co-culture (assay: cell-cell fusion (fraction fused) z-score vs plate DMSO control; higher = more fusion). Conditions: 30 µM; 5 h; toxicity class: non-toxic, passed QC.

Row | Structure (SMILES) | cell-cell fusion (z-score)
1 | CC(=O)OCC(=O)[C@@]1(O)CCC2C3CCC4=CC(=O)CC[C@]4(C)C3C(=O)C[C@@]21C (some centres undefined) | inactive: 1.21
2 | COc1ccc(-c2coc3c(OC)c(OC)cc(O)c3c2=O)cc1 | inactive: 1.26
3 | CS(=O)(=O)Nc1ccc([N+](=O)[O-])cc1Oc1ccccc1 | inactive: 3.4
4 | Cc1nc(NC(=O)N2CCC[C@H]2C(N)=O)sc1-c1ccnc(C(C)(C)C(F)(F)F)c1 [Alpelisib] | inactive: 1.16
5 | CC(CN1c2ccccc2Sc2ccccc21)N(C)C.Cl (centres undefined) [Promethazine hydrochloride] | inactive: 3.27
6 | CC(CN1c2ccccc2Sc2ccccc21)N(C)C.Cl (centres undefined) | inactive: -1.66
7 | CC(C)(C)c1nc(-c2cccc(NS(=O)(=O)c3c(F)cccc3F)c2F)c(-c2ccnc(N)n2)s1 | inactive: 0.628
8 | CN1CC\C(CC1)=C1\c2ncc(C=O)n2CCc2ccccc12 [Alcaftadine] | inactive: 1.9
9 | CC#C[C@]1(O)CCC2C3CCC4=CC(=O)CCC4=C3[C@@H](c3ccc(N(C)C)cc3)C[C@@]21C (some centres undefined) | active: -4.1
10 | CC(=O)OC(C)OC(=O)C(C)c1ccc(-c2ccccc2)c(F)c1 (centres undefined) [Flurbiprofen Axetil] | inactive: -0.126
11 | O=C(Nc1ccc(-c2ccnc(Nc3ccc(N4CCOCC4)cc3)n2)cc1)[C@@H]1CCCN1 | inactive: 1.48
12 | CCCCCCCC/C=C\CCCCCCCC(=O)[O-].[NH3+]CCO | inactive: 1.53
13 | COc1ccc(C(=O)O)c(O)c1OC | inactive: 1.38
14 | CC(=O)OCC(OC(C)=O)C(OC(C)=O)C(OC(C)=O)C(OC(C)=O)C(COC(C)=O)OC(C)=O (centres undefined) | inactive: 1.78
15 | C[C@]12C=CC(=O)C=C1CCC1C3C[C@@H](O)[C@](O)(C(=O)CO)[C@@]3(C)C[C@H](O)[C@@]12F (some centres undefined) | inactive: 0.871
16 | Nc1nc(=O)c2c([nH]1)NC=C(CNc1ccc(C(=O)N[C@H](CCC(=O)O)C(=O)O)cc1)N2 | inactive: 2.3
17 | CN[C@H](CC(C)C)C(=O)N[C@H]1C(=O)N[C@@H](CC(N)=O)C(=O)N[C@H]2C(=O)N[C@H]3C(=O)N[C@H](C(=O)N[C@H](C(=O)O)c4cc(O)cc(O)c4-c4cc3ccc4O)[C@H](O)c3ccc(c(Cl)c3)Oc3cc2cc(c3O[C@@H]2O[C@H](CO)[C@@H](O)[C@H](O)[C@H]2O[C@H]2C[C@](C)(N)[C@H](O)[C@H](C)O2)Oc2ccc(cc2Cl)[C@H]1O.Cl [Vancomycin hydrochloride] | inactive: 3.22
18 | CCCc1nc2c(C)cc(-c3nc4ccccc4n3C)cc2n1Cc1ccc(-c2ccccc2C(=O)O)cc1 [Telmisartan] | inactive: 2.97
19 | N[C@@H](COP(=O)(O)O)C(=O)O [O-Phospho-L-serine] | inactive: 1.73
20 | COc1ccc(C2Sc3ccccc3N(CCN(C)C)C(=O)C2OC(C)=O)cc1.Cl (centres undefined) | inactive: 2.55
21 | CC(N)(Cc1ccc(O)c(O)c1)C(=O)O (racemic) [(±)-3-(3,4-dihydroxyphenyl)-2-methyl-DL-alanine] | inactive: 1.82
22 | NC(=O)c1ccc(I)c([N+](=O)[O-])c1 [Iniparib (BSI-201)] | inactive: 2.25

Entries 3–15 from above:
Row | Structure (SMILES) | cell-cell fusion (z-score)
3 | CS(=O)(=O)Nc1ccc([N+](=O)[O-])cc1Oc1ccccc1 | inactive: 3.4
4 | Cc1nc(NC(=O)N2CCC[C@H]2C(N)=O)sc1-c1ccnc(C(C)(C)C(F)(F)F)c1 [Alpelisib] | inactive: 1.16
5 | CC(CN1c2ccccc2Sc2ccccc21)N(C)C.Cl (centres undefined) [Promethazine hydrochloride] | inactive: 3.27
6 | CC(CN1c2ccccc2Sc2ccccc21)N(C)C.Cl (centres undefined) | inactive: -1.66
7 | CC(C)(C)c1nc(-c2cccc(NS(=O)(=O)c3c(F)cccc3F)c2F)c(-c2ccnc(N)n2)s1 | inactive: 0.628
8 | CN1CC\C(CC1)=C1\c2ncc(C=O)n2CCc2ccccc12 [Alcaftadine] | inactive: 1.9
9 | CC#C[C@]1(O)CCC2C3CCC4=CC(=O)CCC4=C3[C@@H](c3ccc(N(C)C)cc3)C[C@@]21C (some centres undefined) | active: -4.1
10 | CC(=O)OC(C)OC(=O)C(C)c1ccc(-c2ccccc2)c(F)c1 (centres undefined) [Flurbiprofen Axetil] | inactive: -0.126
11 | O=C(Nc1ccc(-c2ccnc(Nc3ccc(N4CCOCC4)cc3)n2)cc1)[C@@H]1CCCN1 | inactive: 1.48
12 | CCCCCCCC/C=C\CCCCCCCC(=O)[O-].[NH3+]CCO | inactive: 1.53
13 | COc1ccc(C(=O)O)c(O)c1OC | inactive: 1.38
14 | CC(=O)OCC(OC(C)=O)C(OC(C)=O)C(OC(C)=O)C(OC(C)=O)C(COC(C)=O)OC(C)=O (centres undefined) | inactive: 1.78
15 | C[C@]12C=CC(=O)C=C1CCC1C3C[C@@H](O)[C@](O)(C(=O)CO)[C@@]3(C)C[C@H](O)[C@@]12F (some centres undefined) | inactive: 0.871

Further results:

Row | Structure (SMILES) | cell-cell fusion (z-score)
23 | COc1cc(C(C)=O)cc(OC)c1O | inactive: 1.7
24 | CC(=O)O[C@H]1CC[C@@]2(C)C(C[C@@H](OC(C)=O)[C@]3(C)C2CC[C@@]2(C)[C@H](c4ccoc4)OC(=O)[C@H]4O[C@]423)C1(C)C (some centres undefined) | inactive: 3.6
25 | N[C@@H](CS)C(=O)O [cysteine] | inactive: 2.16
26 | O=C(O)CSCC(=O)NC1CCSC1=O (centres undefined) | inactive: 2.14
27 | CCCCCCC(=O)OC1CC(C)(C)NC(C)(C)C1.Cl [TMPH hydrochloride] | inactive: 2.9
28 | Cl.NCCCC(=O)O [gamma-AMINOBUTYRIC ACID HYDROCHLORIDE] | inactive: 0.411
29 | NC(=O)c1ccc(N)nc1 | inactive: 5.24
30 | C1CNCCN1 | inactive: 0.882
31 | CC(C)(C)NS(=O)(=O)c1cncc(-c2cc(F)c3nc(N)nn3c2)c1 | inactive: 2.35
32 | COc1c(C)c(C(=O)c2ccc(N)c(C(=O)[O][Na])c2)n2ccccc12 | inactive: 1.21
33 | C=C1C(C2(C)C=CC(=O)C(C)(C)C2CC(=O)OC)CC[C@@]2(C)[C@H](c3ccoc3)OC(=O)C3OC132 (some centres undefined) | inactive: 1.86
34 | COC(=O)Nc1nc2cc(C(=O)c3cccs3)ccc2[nH]1 [Nocodazole] | inactive: 0.559
35 | CC(C)=CCC/C(C)=C/CO | inactive: 2.46
36 | C[C@H](NCCc1ccc(O)cc1)[C@H](O)c1ccc(O)cc1.Cl [Ritodrine hydrochloride] | inactive: -0.545
37 | CC(C)(C)[C@@H]1NC(=O)O[C@@H]2CCC[C@H]2OCC=CC(F)(F)c2nc3ccccc3nc2O[C@@H]2C[C@@H](C(=O)N[C@]3(C(=O)NS(=O)(=O)C4(C)CC4)C[C@H]3C(F)F)N(C2)C1=O [Glecaprevir] | inactive: 1.49
38 | O=C(CCc1ccc(O)cc1)c1c(O)cc(O)cc1O | inactive: 1.82
39 | CO/N=C(\C(=O)N[C@@H]1C(=O)N2C(C(=O)O)=C(CSc3nnnn3C)CS[C@H]12)c1csc(N)n1.CO/N=C(\C(=O)N[C@@H]1C(=O)N2C(C(=O)O)=C(CSc3nnnn3C)CS[C@H]12)c1csc(N)n1.Cl [Cefmenoxime hydrochloride] | inactive: 2.31
40 | N[C@@H](Cc1ccc(O)c(O)c1)C(=O)O [L-3,4-Dihydroxyphenylalanine] | inactive: 3.81
41 | N[C@@H](Cc1ccc(O)c(O)c1)C(=O)O | inactive: 3.45
42 | Cl.NC(CO)C(=O)NNCc1ccc(O)c(O)c1O (centres undefined) | inactive: 1.78
43 | C[C@]12CCC(=O)C=C1CC[C@@H]1[C@@H]2C(=O)C[C@@]2(C)[C@H]1CC[C@]2(O)C(=O)CO [Cortisone] | inactive: 1.62
44 | O=C(O)Cc1cc(I)c(Oc2cc(I)c(O)c(I)c2)c(I)c1 | inactive: 2.44
